Patent US20150079090A1 (JOSAI UNIVERSITY, published 2015)
No constants are given. Whether binding was seen depends on the method and setting. A result given as binding can be weak or reduced; the word gives no strength. Ends that are not written are not given here.

Columns and labels:
[1] = target: histone H3; test: ELISA in the same manner as Test Example 2
[2] = target: histone H1; test: ELISA in the same manner as Test Example 2
[3] = target: histone H3; test: ELISA, histone coated on plate, 5 ug/mL SSVmAb, absorbance at 405 nm
[4] = target: histone H1; test: as above
[5] = target: histone H2A; test: as above
[6] = target: histone H2B; test: as above

Measured: binding

B1: monoclonal antibody (SSVmAb) of Example 1, produced by hybridoma Mouse-Mouse hybridoma SSV-C 93-3 (NITE BP-972) (antibody, IgG1, V domains shown)
VH: EIQLQQSGAELVKPGASVKISCKASGYSFTGYNMNWVKQSHGKSLEWIGNINPYYGSTSYNQKFKGKATLTVDKSSSTAYMQLNSLTSEDSAVYYCARSPYYSNYWRYFDYWGQGTTLTVSS
VL: QIVLSQSPAILSASPGEKVTMTCRASSSVSYMHWYQQKPGSSPKPWIYATSNLASGVPARFSGSGSGTSYSLTISRVEAEDAATYYCQQWSSNPWTFGGGTKLEIK
notes: Mouse hybridoma antibody
binds: all assays above
